# Source: publication PMC11050535
# Results are given in words; binding and its absence hold for the method and conditions named. Binding seen in cells or lysates may run through a third protein. These calls come from enrichment with a bait or labelling near it, and not all partners need be listed.
# B1: delta-1-pyrroline-5-carboxylate synthetase (O65361) (protein, UniProt O65361 1-719)
# chain: MDATRAFVKDVKRVVVKVGTAVVTRSDGRLALGRLGSLCEQLKELNSDGYEVILVTSGAVSAGRQRLRFRKLVNSSFADLQKPQVELDGKACAAVGQNGLMALYDTLFSQLDLTAAQLLVTDNDFRDPSFRTQLTETVYQLLDLKVVPVLNENDAVSTRKAPYEDSSGIFWDNDSLAALLALELKADLLILLSDVDGLYNGPPSDPRSKLISTYVKEKHQGEITFGDKSRLGRGGMTAKVKAAVYAAYAGIPVIIASGKATDNIIKVIDGQCVGTLFHKDAHLWVQVKETGVRDMAVAARESSRRLQAVSSEERKKILLDIADALEANEEKILAENEADVAAAQYAGYDRSLVARLAMNPDKISSLAKSIRVLADMEEPIGRILKRTEIADGLILEKTSCPLGVLLIVFESRPDALVQIASLAIRSGNGLLLKGGKEAKRSNAILHKVITSAIPDKVGEKLIGLVTSRDEIPDLLKLDDVIDLVIPRGSNKLVSQIKESTRIPVLGHADGICHVYVDKSANMDMAKRIVLDAKTDYPAACNAMETLLVHKDLAENGGLNDLIVDLRTEGVTMFGGPRIDALQEFNIQATQTFNREYSSPACTVEIVDDVYAAIEHINHHGSAHTDCIIAEDHKVAETFLQLVDSAAVLHNASTRFCDGFRFGLGAEVGISTSRIHARGPVGVEGLLTTRWVLKGSGQVVHGDKGVVYTHKDLPLVAQNS
# Target: McHB7-FLAG (Homeobox 7 transcription factor of the ice plant) (Mesembryanthemum crystallinum)
# Test: affinity purification with mass spectrometry; McHB7-FLAG as bait; extract of infiltrated ice plant leaves (150 mM NaCl, 50 mM Tris-HCl pH 8.0, 1 mM EDTA, 1% Triton X-100) on anti-FLAG M2 resin, 4 °C, 2 h; eluted with 3xFLAG peptide; LC-MS/MS; WT leaves as control
binder,measurement,value
B1,binding,binds
